Reference: the supplement of paper PMC10849652
Some of the results follow. Residues, ends and D or L forms follow the SMILES beside them. *: point of attachment. Cbz = O=C(OCc1ccccc1)*

Amino acid sequences for entries named in this document (tags omitted). A change or cut given only in a name is not applied to a line headed by its entry.
UniProt Q9H0V9: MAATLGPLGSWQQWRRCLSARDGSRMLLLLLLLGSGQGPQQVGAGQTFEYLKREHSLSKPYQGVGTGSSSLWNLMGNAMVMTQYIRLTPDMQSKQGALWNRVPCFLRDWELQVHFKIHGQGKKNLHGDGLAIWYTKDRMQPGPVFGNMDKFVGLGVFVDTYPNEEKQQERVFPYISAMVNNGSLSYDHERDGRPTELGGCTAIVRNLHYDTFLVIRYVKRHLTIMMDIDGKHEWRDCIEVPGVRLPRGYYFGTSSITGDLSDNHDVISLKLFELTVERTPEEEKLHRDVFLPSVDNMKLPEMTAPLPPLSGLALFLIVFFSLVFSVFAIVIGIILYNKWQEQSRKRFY
UniProt Q9UHA4, whole entry, looked up: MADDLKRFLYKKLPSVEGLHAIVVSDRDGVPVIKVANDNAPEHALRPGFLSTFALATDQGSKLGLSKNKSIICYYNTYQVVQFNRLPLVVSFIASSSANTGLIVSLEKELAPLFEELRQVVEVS
UniProt Q53H82: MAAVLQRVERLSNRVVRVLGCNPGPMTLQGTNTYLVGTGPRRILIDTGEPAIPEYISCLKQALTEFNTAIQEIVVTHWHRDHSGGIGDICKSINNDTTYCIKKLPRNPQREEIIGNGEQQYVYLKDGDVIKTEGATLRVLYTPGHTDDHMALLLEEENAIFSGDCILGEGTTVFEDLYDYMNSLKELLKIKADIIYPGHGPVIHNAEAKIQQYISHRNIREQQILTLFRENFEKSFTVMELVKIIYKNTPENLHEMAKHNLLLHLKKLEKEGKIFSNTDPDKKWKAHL
UniProt Q9H9A6: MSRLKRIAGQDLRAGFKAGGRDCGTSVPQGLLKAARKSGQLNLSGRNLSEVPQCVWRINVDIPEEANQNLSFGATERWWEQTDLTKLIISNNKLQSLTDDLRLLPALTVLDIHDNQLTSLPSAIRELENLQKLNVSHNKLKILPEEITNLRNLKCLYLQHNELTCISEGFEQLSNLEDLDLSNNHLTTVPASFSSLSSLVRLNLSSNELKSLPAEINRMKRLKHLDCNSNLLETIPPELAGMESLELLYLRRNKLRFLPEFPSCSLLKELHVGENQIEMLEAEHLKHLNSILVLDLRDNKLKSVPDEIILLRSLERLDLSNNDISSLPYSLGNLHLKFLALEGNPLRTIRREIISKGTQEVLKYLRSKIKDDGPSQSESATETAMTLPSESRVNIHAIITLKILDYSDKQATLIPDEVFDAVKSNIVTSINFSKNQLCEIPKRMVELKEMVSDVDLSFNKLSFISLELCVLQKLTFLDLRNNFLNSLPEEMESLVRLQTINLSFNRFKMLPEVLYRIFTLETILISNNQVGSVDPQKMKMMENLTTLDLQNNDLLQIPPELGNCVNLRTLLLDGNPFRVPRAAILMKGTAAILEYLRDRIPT
UniProt Q71RC2, whole entry, looked up: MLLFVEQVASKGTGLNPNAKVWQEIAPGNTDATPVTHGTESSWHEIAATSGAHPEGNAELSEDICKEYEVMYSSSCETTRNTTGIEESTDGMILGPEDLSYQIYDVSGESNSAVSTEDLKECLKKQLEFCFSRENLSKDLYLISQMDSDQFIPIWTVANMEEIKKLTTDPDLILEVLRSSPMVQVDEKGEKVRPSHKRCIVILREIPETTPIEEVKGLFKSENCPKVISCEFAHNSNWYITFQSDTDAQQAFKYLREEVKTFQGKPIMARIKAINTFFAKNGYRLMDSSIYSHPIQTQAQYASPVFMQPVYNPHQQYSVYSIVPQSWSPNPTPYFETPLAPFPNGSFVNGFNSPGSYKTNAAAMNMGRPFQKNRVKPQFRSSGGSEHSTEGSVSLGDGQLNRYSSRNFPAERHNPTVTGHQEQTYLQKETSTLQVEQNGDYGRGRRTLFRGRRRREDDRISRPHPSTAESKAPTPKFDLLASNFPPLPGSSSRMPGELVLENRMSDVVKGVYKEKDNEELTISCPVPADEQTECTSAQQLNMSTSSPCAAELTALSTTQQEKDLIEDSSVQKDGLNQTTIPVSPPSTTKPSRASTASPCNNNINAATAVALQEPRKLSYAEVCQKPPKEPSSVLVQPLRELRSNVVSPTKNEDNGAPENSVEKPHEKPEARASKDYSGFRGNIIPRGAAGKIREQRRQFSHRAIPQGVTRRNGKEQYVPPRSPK
UniProt Q96AG4: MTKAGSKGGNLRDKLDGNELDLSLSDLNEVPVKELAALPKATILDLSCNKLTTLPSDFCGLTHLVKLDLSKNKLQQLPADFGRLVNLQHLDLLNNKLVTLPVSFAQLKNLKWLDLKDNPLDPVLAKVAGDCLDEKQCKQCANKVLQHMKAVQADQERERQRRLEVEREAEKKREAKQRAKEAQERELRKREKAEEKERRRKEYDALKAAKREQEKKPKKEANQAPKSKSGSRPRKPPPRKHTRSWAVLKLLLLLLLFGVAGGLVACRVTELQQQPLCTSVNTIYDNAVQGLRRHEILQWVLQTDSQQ
UniProt Q9Y2U8: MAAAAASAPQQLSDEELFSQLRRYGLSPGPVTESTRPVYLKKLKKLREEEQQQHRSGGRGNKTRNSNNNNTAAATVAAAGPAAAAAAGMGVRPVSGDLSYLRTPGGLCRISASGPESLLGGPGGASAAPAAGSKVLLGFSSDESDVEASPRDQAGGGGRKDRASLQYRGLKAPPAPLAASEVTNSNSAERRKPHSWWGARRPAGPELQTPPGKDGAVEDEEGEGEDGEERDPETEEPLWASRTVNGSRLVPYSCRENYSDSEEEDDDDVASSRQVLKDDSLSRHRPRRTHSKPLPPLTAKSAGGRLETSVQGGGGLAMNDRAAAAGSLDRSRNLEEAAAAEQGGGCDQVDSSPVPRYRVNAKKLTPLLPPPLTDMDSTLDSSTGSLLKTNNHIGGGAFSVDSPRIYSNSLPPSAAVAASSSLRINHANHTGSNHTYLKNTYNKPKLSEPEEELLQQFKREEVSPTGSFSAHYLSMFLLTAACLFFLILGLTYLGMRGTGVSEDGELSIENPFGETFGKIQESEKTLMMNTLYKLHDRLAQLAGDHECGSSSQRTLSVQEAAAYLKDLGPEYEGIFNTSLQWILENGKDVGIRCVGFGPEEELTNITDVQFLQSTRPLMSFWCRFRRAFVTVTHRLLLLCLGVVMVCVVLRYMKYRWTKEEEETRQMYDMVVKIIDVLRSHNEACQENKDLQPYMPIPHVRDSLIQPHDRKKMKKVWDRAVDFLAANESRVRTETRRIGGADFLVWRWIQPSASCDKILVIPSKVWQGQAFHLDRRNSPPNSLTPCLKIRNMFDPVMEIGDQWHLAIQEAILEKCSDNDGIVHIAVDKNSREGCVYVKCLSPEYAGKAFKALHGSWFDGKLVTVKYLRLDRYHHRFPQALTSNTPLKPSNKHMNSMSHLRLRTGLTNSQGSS
UniProt Q16719: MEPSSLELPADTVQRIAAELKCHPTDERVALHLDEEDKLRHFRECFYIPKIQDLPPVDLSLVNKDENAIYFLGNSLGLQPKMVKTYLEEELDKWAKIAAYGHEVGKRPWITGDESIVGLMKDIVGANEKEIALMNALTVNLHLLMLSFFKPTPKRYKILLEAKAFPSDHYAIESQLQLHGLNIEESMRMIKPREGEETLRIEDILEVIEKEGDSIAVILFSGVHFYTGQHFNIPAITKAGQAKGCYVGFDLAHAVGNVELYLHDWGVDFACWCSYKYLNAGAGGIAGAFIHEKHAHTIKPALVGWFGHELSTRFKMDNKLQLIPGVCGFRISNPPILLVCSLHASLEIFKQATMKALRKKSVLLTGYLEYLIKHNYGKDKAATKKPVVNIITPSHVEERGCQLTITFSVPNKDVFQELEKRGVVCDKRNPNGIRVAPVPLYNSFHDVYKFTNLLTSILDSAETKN
UniProt Q6PJG9: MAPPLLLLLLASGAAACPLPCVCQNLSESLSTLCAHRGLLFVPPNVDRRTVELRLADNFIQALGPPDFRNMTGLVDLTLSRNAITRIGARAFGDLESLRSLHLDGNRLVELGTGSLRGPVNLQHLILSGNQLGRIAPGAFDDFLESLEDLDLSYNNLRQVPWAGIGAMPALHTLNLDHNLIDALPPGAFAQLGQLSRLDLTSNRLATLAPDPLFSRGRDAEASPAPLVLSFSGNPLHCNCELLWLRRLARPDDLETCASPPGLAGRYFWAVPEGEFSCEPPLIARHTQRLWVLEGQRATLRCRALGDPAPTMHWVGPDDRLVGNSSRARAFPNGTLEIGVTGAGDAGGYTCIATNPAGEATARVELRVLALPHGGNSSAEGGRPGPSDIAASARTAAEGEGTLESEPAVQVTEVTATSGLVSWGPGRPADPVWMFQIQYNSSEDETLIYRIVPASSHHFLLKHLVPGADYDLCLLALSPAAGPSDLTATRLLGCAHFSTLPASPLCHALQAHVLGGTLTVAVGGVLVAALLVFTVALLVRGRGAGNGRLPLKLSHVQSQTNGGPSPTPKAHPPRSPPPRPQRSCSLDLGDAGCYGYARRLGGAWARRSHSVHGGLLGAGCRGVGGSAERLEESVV
UniProt Q9BU23: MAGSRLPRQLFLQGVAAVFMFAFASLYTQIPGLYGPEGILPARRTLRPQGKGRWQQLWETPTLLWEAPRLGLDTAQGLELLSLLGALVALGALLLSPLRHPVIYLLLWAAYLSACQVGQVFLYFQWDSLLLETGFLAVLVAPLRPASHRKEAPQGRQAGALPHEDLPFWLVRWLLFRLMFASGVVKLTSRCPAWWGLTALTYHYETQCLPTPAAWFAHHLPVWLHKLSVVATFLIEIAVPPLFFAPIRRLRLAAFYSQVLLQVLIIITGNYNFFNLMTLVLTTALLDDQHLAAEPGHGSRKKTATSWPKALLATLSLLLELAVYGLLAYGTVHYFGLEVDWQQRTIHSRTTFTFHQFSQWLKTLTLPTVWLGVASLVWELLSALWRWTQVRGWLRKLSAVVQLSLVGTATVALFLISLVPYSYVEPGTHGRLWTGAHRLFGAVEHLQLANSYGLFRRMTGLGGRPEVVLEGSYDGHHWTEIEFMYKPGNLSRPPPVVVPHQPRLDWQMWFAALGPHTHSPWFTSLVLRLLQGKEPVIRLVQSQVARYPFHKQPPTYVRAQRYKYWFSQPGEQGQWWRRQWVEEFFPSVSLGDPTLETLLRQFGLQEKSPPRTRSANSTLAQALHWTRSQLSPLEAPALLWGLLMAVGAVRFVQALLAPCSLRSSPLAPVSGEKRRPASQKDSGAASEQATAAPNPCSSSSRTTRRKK
UniProt Q03252: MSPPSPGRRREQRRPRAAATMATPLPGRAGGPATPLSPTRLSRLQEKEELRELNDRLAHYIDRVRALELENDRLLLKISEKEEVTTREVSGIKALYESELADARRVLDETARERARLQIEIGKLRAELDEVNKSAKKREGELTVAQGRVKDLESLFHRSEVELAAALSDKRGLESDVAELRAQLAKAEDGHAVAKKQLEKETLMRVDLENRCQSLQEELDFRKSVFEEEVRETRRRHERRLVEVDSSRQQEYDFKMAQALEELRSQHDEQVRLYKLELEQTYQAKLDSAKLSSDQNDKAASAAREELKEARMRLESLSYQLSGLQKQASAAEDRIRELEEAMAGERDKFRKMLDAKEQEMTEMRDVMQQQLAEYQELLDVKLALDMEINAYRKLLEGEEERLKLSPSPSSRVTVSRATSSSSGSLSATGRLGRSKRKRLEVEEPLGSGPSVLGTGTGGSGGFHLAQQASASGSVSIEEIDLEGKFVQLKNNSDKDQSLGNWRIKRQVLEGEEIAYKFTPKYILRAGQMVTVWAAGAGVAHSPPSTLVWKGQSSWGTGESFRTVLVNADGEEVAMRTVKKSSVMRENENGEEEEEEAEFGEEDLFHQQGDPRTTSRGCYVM
UniProt P01130: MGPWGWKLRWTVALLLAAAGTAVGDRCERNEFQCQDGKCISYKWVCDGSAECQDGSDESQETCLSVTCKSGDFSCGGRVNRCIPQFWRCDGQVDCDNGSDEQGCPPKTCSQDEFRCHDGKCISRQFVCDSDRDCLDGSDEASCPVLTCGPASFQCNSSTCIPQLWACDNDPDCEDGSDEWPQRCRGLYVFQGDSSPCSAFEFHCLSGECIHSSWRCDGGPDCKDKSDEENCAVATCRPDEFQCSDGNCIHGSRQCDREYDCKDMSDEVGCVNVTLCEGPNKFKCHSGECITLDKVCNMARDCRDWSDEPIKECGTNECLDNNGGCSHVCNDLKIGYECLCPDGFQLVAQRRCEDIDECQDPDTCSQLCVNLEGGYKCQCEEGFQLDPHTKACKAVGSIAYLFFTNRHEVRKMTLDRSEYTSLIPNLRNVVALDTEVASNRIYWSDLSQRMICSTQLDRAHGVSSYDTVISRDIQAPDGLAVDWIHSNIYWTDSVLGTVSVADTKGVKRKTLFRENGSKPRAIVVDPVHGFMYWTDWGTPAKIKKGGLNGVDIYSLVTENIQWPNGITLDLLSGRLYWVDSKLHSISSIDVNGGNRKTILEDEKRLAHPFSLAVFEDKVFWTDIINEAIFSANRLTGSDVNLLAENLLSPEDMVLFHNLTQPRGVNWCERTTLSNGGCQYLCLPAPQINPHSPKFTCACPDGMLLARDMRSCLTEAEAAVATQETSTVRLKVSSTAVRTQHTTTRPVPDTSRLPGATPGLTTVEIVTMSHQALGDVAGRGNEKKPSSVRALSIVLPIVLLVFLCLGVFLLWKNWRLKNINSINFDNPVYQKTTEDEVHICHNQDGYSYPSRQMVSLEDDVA

Experiments:
Assay in all cases: log2 fold change, soluble protein after heating vs DMSO (PISA); higher = thermal stabilisation; K562 cells, 10 uM, 30 min; active = over 0.2 and 3.5 SD of the protein, either way, in both replicates (recomputed)
erlotinib = compound: C#Cc1cccc(Nc2ncnc3cc(OCCOC)c(OCCOC)cc23)c1 [erlotinib]
Method in brief: (§1)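 K562 cells at 2×10^6 cells/mL were exposed to 10 μM compound for 30 min, then aliquots were heated for 3 min across 48°C-58°C, pooled, and extracted in PBS containing 0.5% NP-40 at 4°C. The supernatant after 21,000xg for 90 min was taken as soluble protein and measured by TMTpro 16plex LC-MS/MS with channel sums equalised. Thermal stability is reported relative to control samples, with values from duplicates. Fold changes are given on a log2 scale.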

[1] = compound: C/C(=N\NC(=O)C1=CC(=CC=C1)S(=O)(=O)N2CCOCC2)/C3=C(C=CC(=C3)Cl)O
Method in brief: as §1

[2] = compound: C1=CC(=C(C=C1Cl)C2=NC3=NC=CN=C3C(=N2)NC4=CC=NC=C4)F
Method in brief: as §1

[3] = compound: C1=CC(=CC=C1C2=NC3=C(N2)C=C(C=C3)C(=O)N)OC4=CC=C(C=C4)Cl
Method in brief: as §1

[4] = compound: C1=CC2=C(C=CC(=C2)/C=C\3/C(=O)NC(=NCC4=CC=CS4)S3)N=C1
Method in brief: as §1

[5] = compound: C1=CC2=NC=CN=C2C=C1/C=C/3\C(=O)NC(=O)S3
Method in brief: as §1

[6] = compound: C1=CC=C(C=C1)C2=NC(=C(N2)C3=CC=NC=C3)C4=CC(=C(C=C4)Cl)O
Method in brief: as §1

[7] = compound: C1=CC=C2C(=C1)C3=NNC4=CC=CC(=C43)C2=O
Method in brief: as §1

[8] = compound: C1CCN(C1)C(=O)NC2=CC=CC(=C2)NC3=NC=C(C(=N3)NCCC4=CN=CN4)Br
Method in brief: as §1

[9] = compound: C1CN(CCC1(CC2=CC=C(C=C2)Cl)N)C3=NC=NC4=C3C=CN4
Method in brief: as §1

IRAK-1-4 Inhibitor I = compound: C1COCCN1CCN2C3=CC=CC=C3N=C2NC(=O)C4=CC(=CC=C4)[N+](=O)[O-] [IRAK-1-4 Inhibitor I]
Method in brief: as §1

ibrutinib = compound: C=CC(=O)N1CCC[C@@H](n2nc(-c3ccc(Oc4ccccc4)cc3)c3c(N)ncnc32)C1 [ibrutinib]
Method in brief: as §1

[10] = compound: CC(=O)c1cnc2ccc(-c3cc(Cl)c(O)c(Cl)c3)nc2c1N[C@H]1CC[C@H](CN(C)C)CC1
Method in brief: as §1

ralimetinib = compound: CC(C)(C)Cn1c(N)nc2ccc(-c3[nH]c(C(C)(C)C)nc3-c3ccc(F)cc3)nc21 [ralimetinib]
Method in brief: as §1

[11] = compound: CC(C)(O)CC(=O)NCCn1ccc2ncnc(Nc3ccc(Oc4cccc(C(F)(F)F)c4)c(Cl)c3)c21
Method in brief: as §1

[12] = compound: CC(C)C1=C2N=C(C=C(N2N=C1)NCC3=CC=CC=C3)NCCCCCCN
Method in brief: as §1

[13] = compound: CC(C)C[C@@H](C=O)NC(=O)[C@H](CC(C)C)NC(=O)[C@H](CC(C)C)NC(=O)OCc1ccccc1
Method in brief: as §1

pinometostat = compound: CC(C)N(C[C@H]1O[C@@H](n2cnc3c(N)ncnc32)[C@H](O)[C@@H]1O)[C@H]1C[C@@H](CCc2nc3cc(C(C)(C)C)ccc3[nH]2)C1 [pinometostat]
Method in brief: as §1

[14] = compound: CC1=C(C(CC(=O)N1)C2=CC=C(C=C2)C(F)(F)F)C(=O)NC3=C(C=C4C(=C3)C=NN4)F
Method in brief: as §1

[15] = compound: CC1=C(C2=C(C=C1)C(=O)C3=CC=CC=C3N2CCCN)C
Method in brief: as §1

Measured: log2 fold change

LDHB (UniProt P07195)
inactive: erlotinib 0.001 | [1] 0.002 | [2] 0.001 | [3] 0.017 | [4] -0.012 | [5] 0.003 | [6] -0.061 | [7] -0.004 | [8] -0.002 | [9] 0.037 | IRAK-1-4 Inhibitor I 0.075 | ibrutinib 0.025 | [10] 0.013 | ralimetinib -0.025 | [11] 0.052 | [12] 0.102 | [13] 0.031 | pinometostat -0.037 | [14] 0.011 | [15] 0.006

LEPR (UniProt P48357)
inactive: erlotinib -0.07 | [1] 0.005 | [2] -0.027 | [3] 0.006 | [4] -0.053 | [5] 0.005 | [6] 0.026 | [7] -0.015 | [8] -0.024 | [9] 0.069 | IRAK-1-4 Inhibitor I 0.025 | ibrutinib 0.013 | [10] -0.061 | ralimetinib 0.019 | [11] 0.043 | [12] 0.042 | [13] 0.038 | pinometostat 0.012 | [14] -0.008 | [15] -0.074

LDHA isoform 3 (UniProt P00338)
inactive: erlotinib -0.016 | [1] 0 | [2] 0.031 | [3] 0.021 | [4] -0.008 | [5] -0.002 | [6] -0.017 | [7] -0.008 | [8] -0.018 | [9] 0.05 | IRAK-1-4 Inhibitor I 0.068 | ibrutinib 0.019 | [10] 0.01 | ralimetinib -0.026 | [11] -0.017 | [12] 0.083 | [13] -0.022 | pinometostat -0.032 | [14] -0.013 | [15] 0.027

LMAN2L isoform 2 (UniProt Q9H0V9)
inactive: erlotinib 0.051 | [1] 0.015 | [2] -0.027 | [3] -0.067 | [4] 0.036 | [5] 0.056 | [6] 0.01 | [7] 0.002 | [8] -0.064 | [9] 0.009 | IRAK-1-4 Inhibitor I -0.004 | ibrutinib -0.024 | [10] -0.018 | ralimetinib -0.003 | [11] -0.026 | [12] -0.046 | [13] 0.019 | pinometostat 0.014 | [14] -0.037 | [15] 0.033

LAMTOR3 (UniProt Q9UHA4)
inactive: erlotinib 0.046 | [1] 0.005 | [2] -0.036 | [3] -0.015 | [4] 0.055 | [5] 0.028 | [6] -0.119 | [7] -0.015 | [8] 0.034 | [9] -0.052 | IRAK-1-4 Inhibitor I -0.004 | ibrutinib 0.018 | [10] -0.19 | ralimetinib -0.025 | [11] 0.112 | [12] -0.259 | [13] 0.054 | pinometostat 0.032 | [14] 0.058 | [15] -0.008

LACTB2 (UniProt Q53H82)
inactive: erlotinib -0.01 | [1] -0.023 | [2] 0.055 | [3] 0.04 | [4] 0.005 | [5] 0.004 | [6] 0.076 | [7] -0.02 | [8] -0.002 | [9] 0.035 | IRAK-1-4 Inhibitor I 0.004 | ibrutinib 0.016 | [10] 0.014 | ralimetinib 0.033 | [11] -0.036 | [12] 0.082 | [13] -0.063 | pinometostat -0.026 | [14] 0.066 | [15] -0.025

LRRC40 (UniProt Q9H9A6)
inactive: erlotinib 0.124 | [1] 0.131 | [2] -0.03 | [3] 0.023 | [4] 0.055 | [5] 0.006 | [6] 0.046 | [7] 0.028 | [8] -0.064 | [9] -0.103 | IRAK-1-4 Inhibitor I -0.017 | ibrutinib -0.023 | [10] -0.064 | ralimetinib 0.038 | [11] -0.109 | [12] -0.222 | [13] 0.013 | pinometostat 0.102 | [14] 0.003 | [15] 0.07

LARP4 isoform 4 (UniProt Q71RC2)
inactive: erlotinib 0.015 | [1] 0.007 | [2] -0.123 | [3] 0.055 | [4] 0.086 | [5] 0.002 | [6] -0.028 | [7] -0.044 | [8] -0.004 | [9] -0.035 | IRAK-1-4 Inhibitor I -0.091 | ibrutinib 0.037 | [10] -0.128 | ralimetinib 0.068 | [11] 0.046 | [12] -0.19 | [13] 0.059 | pinometostat 0.114 | [15] -0.054

LRRC59 (UniProt Q96AG4)
inactive: erlotinib -0.001 | [1] -0.006 | [2] -0.003 | [3] 0.005 | [4] -0.025 | [5] -0.003 | [6] 0.053 | [7] 0.032 | [8] -0.009 | [9] 0.017 | IRAK-1-4 Inhibitor I 0.001 | ibrutinib -0.03 | [10] 0.025 | ralimetinib -0.007 | [11] 0.028 | [12] 0.014 | [13] -0.006 | pinometostat -0.049 | [14] -0.002 | [15] 0.079

LEMD3 (UniProt Q9Y2U8)
inactive: erlotinib 0.102 | [1] 0.091 | [2] 0.109 | [3] -0.007 | [4] 0.003 | [5] -0.05 | [6] -0.01 | [7] 0.169 | [8] -0.063 | [9] -0.029 | IRAK-1-4 Inhibitor I 0.04 | ibrutinib 0.03 | [10] -0.173 | ralimetinib -0.082 | [11] -0.09 | [12] -0.056 | [13] 0.039 | pinometostat -0.026 | [15] 0.101

KYNU (UniProt Q16719)
inactive: erlotinib 0.047 | [1] -0.037 | [2] -0.045 | [3] -0.046 | [4] -0.01 | [5] 0.022 | [6] 0.001 | [7] -0.013 | [8] -0.029 | [9] 0.062 | IRAK-1-4 Inhibitor I 0.034 | ibrutinib -0.023 | [10] -0.015 | ralimetinib -0.029 | [11] -0.105 | [12] 0.083 | [13] 0.032 | pinometostat 0.001 | [14] 0.028 | [15] 0.043

LRFN4 (UniProt Q6PJG9)
inactive: erlotinib -0.168 | [1] -0.156 | [2] 0.047 | [3] -0.251 | [4] 0.02 | [5] 0.094 | [6] 0.022 | [7] 0.05 | [8] -0.181 | [9] -0.052 | IRAK-1-4 Inhibitor I 0.007 | ibrutinib 0.089 | [10] -0.134 | ralimetinib -0.049 | [11] -0.062 | [12] -0.063 | [13] 0.086 | pinometostat -0.094 | [15] 0.05

LMF2 (UniProt Q9BU23)
inactive: erlotinib -0.017 | [1] 0.002 | [2] -0.005 | [4] 0.055 | [5] -0.012 | [6] 0.006 | [7] 0.052 | [8] -0.021 | [9] 0.021 | IRAK-1-4 Inhibitor I 0.006 | ibrutinib -0.035 | [10] 0.001 | ralimetinib -0.008 | [11] -0.029 | [12] -0.152 | [13] 0.08 | pinometostat 0.008 | [15] 0.001
active: [3] 0.434

LBR (UniProt Q14739)
inactive: erlotinib 0.009 | [1] 0.122 | [2] 0.043 | [3] -0.016 | [4] 0.029 | [5] 0.034 | [6] 0.059 | [7] -0.002 | [8] 0.037 | [9] 0.21 | IRAK-1-4 Inhibitor I -0.044 | ibrutinib -0.092 | [10] 0.038 | ralimetinib -0.001 | [11] -0.211 | [12] -0.168 | [13] -0.083 | pinometostat 0.211 | [15] 0.188

LMNB2 (UniProt Q03252)
inactive: erlotinib 0.027 | [1] 0.062 | [2] 0.001 | [3] 0.025 | [4] -0.042 | [5] 0.099 | [6] -0.066 | [7] -0.186 | [8] -0.167 | [9] 0.001 | IRAK-1-4 Inhibitor I -0.026 | ibrutinib -0.017 | ralimetinib -0.018 | [11] 0.052 | [12] -0.093 | [13] 0.03 | pinometostat 0.011 | [15] -0.022
active: [10] -0.214

Taken from the entries so far (2 entries):
LDHA isoform 3 (UniProt P00338)
inactive: erlotinib -0.016 | [1] 0 | [2] 0.031 | [3] 0.021 | [4] -0.008 | [5] -0.002 | [6] -0.017 | [7] -0.008 | [8] -0.018 | [9] 0.05 | IRAK-1-4 Inhibitor I 0.068 | ibrutinib 0.019 | [10] 0.01 | ralimetinib -0.026 | [11] -0.017 | [12] 0.083 | [13] -0.022 | pinometostat -0.032 | [14] -0.013 | [15] 0.027

LMAN2L isoform 2 (UniProt Q9H0V9)
inactive: erlotinib 0.051 | [1] 0.015 | [2] -0.027 | [3] -0.067 | [4] 0.036 | [5] 0.056 | [6] 0.01 | [7] 0.002 | [8] -0.064 | [9] 0.009 | IRAK-1-4 Inhibitor I -0.004 | ibrutinib -0.024 | [10] -0.018 | ralimetinib -0.003 | [11] -0.026 | [12] -0.046 | [13] 0.019 | pinometostat 0.014 | [14] -0.037 | [15] 0.033

Following part:

LDLR (UniProt P01130)
inactive: erlotinib -0.035 | [1] 0.003 | [2] -0.04 | [3] 0.03 | [4] -0.018 | [5] 0.025 | [6] 0.011 | [7] -0.113 | [8] 0.025 | [9] 0.051 | IRAK-1-4 Inhibitor I 0.03 | ibrutinib -0.015 | [10] -0.106 | ralimetinib -0.025 | [11] 0.072 | [12] -0.009 | [13] 0.171 | pinometostat -0.011 | [15] -0.058
